{
  "source": "ChEMBL document CHEMBL4316593",
  "about": "(Eur J Med Chem, 2019)",
  "type_in_all_cases": "cell-based",
  "conditions_in_all_cases": "U-87MG ATCC",
  "key": {"[1]": {"assay": "Inhibition of RTK/PI3K/AKT/mTOR signaling in human U87 cells assessed as down regulation of MSN gene expression at cytotoxic IC50 measured after 48 hrs relative to control"}, "[2]": {"assay": "Inhibition of RTK/PI3K/AKT/mTOR signaling in human U87 cells assessed as down regulation of RELT gene expression at cytotoxic IC50 measured after 48 hrs relative to control"}, "[3]": {"assay": "Inhibition of RTK/PI3K/AKT/mTOR signaling in human U87 cells assessed as down regulation of ACTB gene expression at cytotoxic IC50 measured after 48 hrs relative to control"}, "[4]": {"assay": "Inhibition of RTK/PI3K/AKT/mTOR signaling in human U87 cells assessed as down regulation of TUBB gene expression at cytotoxic IC50 measured after 48 hrs relative to control"}, "[5]": {"assay": "Inhibition of RTK/PI3K/AKT/mTOR signaling in human U87 cells assessed as up regulation of isochorismatase domain containing 2 gene expression at cytotoxic IC50 measured after 48 hrs relative to control"}, "[6]": {"assay": "Inhibition of RTK/PI3K/AKT/mTOR signaling in human U87 cells assessed as down regulation of AREL1 gene expression at cytotoxic IC50 measured after 48 hrs relative to control"}, "[7]": {"assay": "Inhibition of RTK/PI3K/AKT/mTOR signaling in human U87 cells assessed as down regulation of CLCN5 gene expression at cytotoxic IC50 measured after 48 hrs relative to control"}, "[8]": {"assay": "Inhibition of RTK/PI3K/AKT/mTOR signaling in human U87 cells assessed as down regulation of LATS1 gene expression at cytotoxic IC50 measured after 48 hrs relative to control"}, "[9]": {"assay": "Inhibition of RTK/PI3K/AKT/mTOR signaling in human U87 cells assessed as down regulation of TFIP11 gene expression at cytotoxic IC50 measured after 48 hrs relative to control"}, "[10]": {"assay": "Inhibition of RTK/PI3K/AKT/mTOR signaling in human U87 cells assessed as up regulation of brain expressed X-linked 2 gene expression at cytotoxic IC50 measured after 48 hrs relative to control"}, "[11]": {"assay": "Inhibition of RTK/PI3K/AKT/mTOR signaling in human U87 cells assessed as down regulation of STK10 gene expression at cytotoxic IC50 measured after 48 hrs relative to control"}, "[12]": {"assay": "Inhibition of RTK/PI3K/AKT/mTOR signaling in human U87 cells assessed as down regulation of MAP3K3 gene expression at cytotoxic IC50 measured after 48 hrs relative to control"}, "[13]": {"assay": "Inhibition of RTK/PI3K/AKT/mTOR signaling in human U87 cells assessed as down regulation of VPS50 gene expression at cytotoxic IC50 measured after 48 hrs relative to control"}, "[14]": {"assay": "Inhibition of RTK/PI3K/AKT/mTOR signaling in human U87 cells assessed as down regulation of RFTN1 gene expression at cytotoxic IC50 measured after 48 hrs relative to control"}, "[15]": {"assay": "Inhibition of RTK/PI3K/AKT/mTOR signaling in human U87 cells assessed as down regulation of NFS1 gene expression at cytotoxic IC50 measured after 48 hrs relative to control"}, "[16]": {"assay": "Inhibition of RTK/PI3K/AKT/mTOR signaling in human U87 cells assessed as up regulation of Kruppel like factor 9 gene expression at cytotoxic IC50 measured after 48 hrs relative to control"}, "[17]": {"assay": "Inhibition of RTK/PI3K/AKT/mTOR signaling in human U87 cells assessed as down regulation of BAG3 gene expression at cytotoxic IC50 measured after 48 hrs relative to control"}, "[18]": {"assay": "Inhibition of RTK/PI3K/AKT/mTOR signaling in human U87 cells assessed as down regulation of RIOK2 gene expression at cytotoxic IC50 measured after 48 hrs relative to control"}, "[19]": {"assay": "Inhibition of RTK/PI3K/AKT/mTOR signaling in human U87 cells assessed as down regulation of MAPKBP1 gene expression at cytotoxic IC50 measured after 48 hrs relative to control"}, "[20]": {"assay": "Inhibition of RTK/PI3K/AKT/mTOR signaling in human U87 cells assessed as down regulation of HHLA3 gene expression at cytotoxic IC50 measured after 48 hrs relative to control"}, "[21]": {"assay": "Inhibition of RTK/PI3K/AKT/mTOR signaling in human U87 cells assessed as down regulation of TAOK3 gene expression at cytotoxic IC50 measured after 48 hrs relative to control"}, "[22]": {"assay": "Inhibition of RTK/PI3K/AKT/mTOR signaling in human U87 cells assessed as up regulation of mercaptopyruvate sulfurtransferase gene expression at cytotoxic IC50 measured after 48 hrs relative to control"}, "[23]": {"assay": "Inhibition of RTK/PI3K/AKT/mTOR signaling in human U87 cells assessed as down regulation of FCF1 gene expression at cytotoxic IC50 measured after 48 hrs relative to control"}, "[24]": {"assay": "Inhibition of RTK/PI3K/AKT/mTOR signaling in human U87 cells assessed as down regulation of NCEH1 gene expression at cytotoxic IC50 measured after 48 hrs relative to control"}, "[25]": {"assay": "Inhibition of RTK/PI3K/AKT/mTOR signaling in human U87 cells assessed as up regulation of PABPC1 gene expression at cytotoxic IC50 measured after 48 hrs relative to control"}, "[26]": {"assay": "Inhibition of RTK/PI3K/AKT/mTOR signaling in human U87 cells assessed as down regulation of SECISBP2L gene expression at cytotoxic IC50 measured after 48 hrs relative to control"}, "[27]": {"assay": "Inhibition of RTK/PI3K/AKT/mTOR signaling in human U87 cells assessed as down regulation of STRAP gene expression at cytotoxic IC50 measured after 48 hrs relative to control"}, "[28]": {"assay": "Inhibition of RTK/PI3K/AKT/mTOR signaling in human U87 cells assessed as down regulation of CDK12 gene expression at cytotoxic IC50 measured after 48 hrs relative to control"}, "[29]": {"assay": "Inhibition of RTK/PI3K/AKT/mTOR signaling in human U87 cells assessed as down regulation of GSKIP gene expression at cytotoxic IC50 measured after 48 hrs relative to control"}, "[30]": {"assay": "Inhibition of RTK/PI3K/AKT/mTOR signaling in human U87 cells assessed as down regulation of GNPDA2 gene expression at cytotoxic IC50 measured after 48 hrs relative to control"}, "[31]": {"assay": "Inhibition of RTK/PI3K/AKT/mTOR signaling in human U87 cells assessed as down regulation of PCLO gene expression at cytotoxic IC50 measured after 48 hrs relative to control"}, "[32]": {"assay": "Inhibition of RTK/PI3K/AKT/mTOR signaling in human U87 cells assessed as up regulation of beta-1,4-galactosyltransferase 2 gene expression at cytotoxic IC50 measured after 48 hrs relative to control"}, "[33]": {"assay": "Inhibition of RTK/PI3K/AKT/mTOR signaling in human U87 cells assessed as up regulation of PRKCSH gene expression at cytotoxic IC50 measured after 48 hrs relative to control"}},
  "note": "The source gives many values for each of these; only a part stands here.",
  "data": [
    {"smiles": "CC(=O)C(=NNc1ccccc1C#N)C(C)=O", "values": [
      {"measurement": "log2FC", "setting": "[1]", "value": -0.514},
      {"measurement": "log2FC", "setting": "[2]", "value": -1.31},
      {"measurement": "log2FC", "setting": "[3]", "value": -1.05},
      {"measurement": "log2FC", "setting": "[4]", "value": -0.562},
      {"measurement": "log2FC", "setting": "[5]", "value": 0.999},
      {"measurement": "log2FC", "setting": "[6]", "value": -0.506},
      {"measurement": "log2FC", "setting": "[7]", "value": -1.02},
      {"measurement": "log2FC", "setting": "[8]", "value": -0.529},
      {"measurement": "log2FC", "setting": "[9]", "value": -0.862},
      {"measurement": "log2FC", "setting": "[10]", "value": 1},
      {"measurement": "log2FC", "setting": "[11]", "value": -1.25},
      {"measurement": "log2FC", "setting": "[12]", "value": -0.889},
      {"measurement": "log2FC", "setting": "[13]", "value": -0.895},
      {"measurement": "log2FC", "setting": "[14]", "value": -3.54},
      {"measurement": "log2FC", "setting": "[15]", "value": -1.16},
      {"measurement": "log2FC", "setting": "[16]", "value": 0.892},
      {"measurement": "log2FC", "setting": "[17]", "value": -2.41},
      {"measurement": "log2FC", "setting": "[18]", "value": -1.18},
      {"measurement": "log2FC", "setting": "[19]", "value": -1.55},
      {"measurement": "log2FC", "setting": "[20]", "value": -1.14},
      {"measurement": "log2FC", "setting": "[21]", "value": -0.924},
      {"measurement": "log2FC", "setting": "[22]", "value": 1.11},
      {"measurement": "log2FC", "setting": "[23]", "value": -0.561},
      {"measurement": "log2FC", "setting": "[24]", "value": -1.68},
      {"measurement": "log2FC", "setting": "[25]", "value": 0.292},
      {"measurement": "log2FC", "setting": "[26]", "value": -0.692},
      {"measurement": "log2FC", "setting": "[27]", "value": -0.568},
      {"measurement": "log2FC", "setting": "[28]", "value": -1.09},
      {"measurement": "log2FC", "setting": "[29]", "value": -1.76},
      {"measurement": "log2FC", "setting": "[30]", "value": -0.702},
      {"measurement": "log2FC", "setting": "[31]", "value": -2.34},
      {"measurement": "log2FC", "setting": "[32]", "value": 1.32},
      {"measurement": "log2FC", "setting": "[33]", "value": 0.453}
    ]}
  ]
}
